Reference: PubChem BioAssay AID504467 (National Center for Advancing Translational Sciences (NCATS), 2011)
In all, about 330,000 compounds went through this assay and about 7,700 (2.3%) were called active. Inconclusive results, whose numbers are uncertain, are shown with a selection of clear calls. The call rests on the fitted dose curve; in most records, active means well fitted inhibition curve with a large enough effect; inconclusive means small, poorly fitted or top-dose-only effect, or effect the other way; inactive means flat fitted curve, though single readings scatter. Potencies of inconclusive entries are doubtful fits and often do not repeat.

Assay: qHTS screen for small molecules that inhibit ELG1-dependent DNA repair in human embryonic kidney (HEK293T) cells expressing luciferase-tagged ELG1; further: nearly all actives have a fitted effect of over 55% in size
Settings: HEK293T ELG1-luciferase reporter, luminescence, 16 h, DNA damage induced by 5-fluorouridine; activity change, negative = inhibition: at 46.1 µM (top of the series)
How it was run: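 Overnight (16 hr) co-exposure of 2,000 cells/well to 5-fluorouridine and compound at 37 °C preceded detection. Luciferase was quantified via ONE-Glo luminescence; loss of signal denotes inhibition.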
On the % scale 0 is the no-effect control and ±100 the full control effect; potency means the concentration at half of the fitted maximal effect.

SMILES	Potency	activity change, negative = inhibition
N#Cc1cnc(Nc2ccc(F)cc2)nc1N	inconclusive: 20.6 µM [activator, partial curve]	–
O=C(Nc1nccs1)c1cc([N+](=O)[O-])ccc1Cl	–	inactive: 9.92%
O=c1oc2ccccc2n1CCn1c2ccccc2c2nc3ccccc3nc21	inconclusive: 6.51 µM [inhibitor, single point]	–
CCCCn1c(N)c(N(CCOC)C(=O)CSc2nnc(-c3ccco3)n2CC)c(=O)[nH]c1=O	–	inactive: 6.16%
CCC(C)NC(=O)c1ccc2nc(-c3ccc(OC)c(OC)c3)c(-c3ccc(OC)c(OC)c3)nc2c1 (configuration not stated)	active: 0.517 µM	–
CCOc1ccc(CCNC(=O)CCS(=O)(=O)c2ccc(C)cc2)cc1OCC	–	inactive: 9.13%
Cc1cc(S(=O)(=O)Nc2ccccc2C)ccc1F	–	inactive: -11.9%
O=C(NCC1CC1)c1ccc2c3n(nc2c1)-c1ccccc1CO3	inconclusive: 1.16 µM [activator, partial curve]	–
O=C(NOC(=O)c1c(F)cccc1Cl)c1ccc(Cl)c(Cl)c1	inconclusive: 29.1 µM [activator, partial curve, poor fit]	–
CCCCC(=O)NS(=O)(=O)c1ccc(N=NN2CCCCC2)cc1	inconclusive: 29.1 µM [activator, partial curve, poor fit]	–
CC1CCN(CC(=O)Nc2cccc(Cl)c2)CC1	–	inactive: 2.86%
O=C1CCCC2=C1C(c1ccco1)Nc1ccc(C(=O)c3ccccc3)cc1N2 (configuration not stated)	inconclusive: 29.1 µM [inhibitor, single point]	–
COc1ccc(C2=C(Nc3ccc(F)cc3)c3ccccc3C2=O)cc1	–	inactive: 1.85%
C/C(=N\NC(=O)c1cc(Br)ccc1O)c1cccc(NC(=O)c2ccccc2F)c1	inconclusive: 23.1 µM [activator, single point]	–
COc1cc2c(cc1OC)CN(S(=O)(=O)c1ccc3c(c1)OCCO3)CC2	–	inactive: -17.8%
CC(C)(C)c1ccc(OCCC(=O)NC2=NCCS2)cc1	–	inactive: 11.1%
NCC(=O)NCC(=O)NC[C@H]1O[C@@H](n2cnc3c(N)ncnc32)[C@H](O)[C@@H]1O	inconclusive: 14.6 µM [activator, partial curve, poor fit]	–
Oc1cccc2ccc(Nc3ccccn3)nc12	inconclusive: 8.91 µM [inhibitor, partial curve, poor fit]	–
COc1cccc(C(=O)OC(C)C(=O)NCC2CCCCC2)c1 (configuration not stated)	–	inactive: -3.22%
O=C(CSc1nc(O)c(Cc2ccccc2F)c(=O)[nH]1)N1CCCCCC1	–	inactive: 0.948%
Cc1occc1-c1nnc(SCC(=O)NC2CC2)n1C(C)C	–	inactive: 1.75%
Cc1ccccc1CN(C)CC(=O)Nc1cccc(S(=O)(=O)N(C)c2ccccc2)c1	inconclusive: 29.1 µM [inhibitor, partial curve, poor fit]	–

Record cards (already shown). Values in the order: Potency	activity change, negative = inhibition
O=C(CSc1nc(O)c(Cc2ccccc2F)c(=O)[nH]1)N1CCCCCC1 reads –	inactive: 0.948%
O=C(Nc1nccs1)c1cc([N+](=O)[O-])ccc1Cl reads –	inactive: 9.92%
